The nature of this data set: general procedure: peptide synthesis; trypsin (enzymatic transpeptidation). The note with it: late stage modification step; for final HPLC purity: analytical reverse-phase HPLC, DISC PAGE electrophoresis.

Where “and” joins values, the source holds several entries; their conditions need not be identical. Equal values may be shown once.

Turning to Gln^B13,Thr^B30-NH₂ human insulin, the step yield came out at 29% and the “final HPLC purity” value is listed as 95%.

Regarding Gln^A17,Lys^B30-NH₂ human insulin, the “final HPLC purity” value is “about 97%”. Under “from insulin precursor”, the step yield came out at 19%. Besides, the step yield (over last step) worked out at 65%.

In the case of Gln^A17,Thr^B30-NH₂ human insulin, the “final HPLC purity” value is listed as “about 95%”. Moreover, the step yield (run 1) was 53% and 37%.

Arg^B27,Lys^B30-NH₂ human insulin: the step yield was 22% and the “final HPLC purity” value is recorded as 92%.

Turning to Gln^A17,Lys(Boc)^B30-NH₂ human insulin, the step yield amounted to 29%.

Consider Lys^B27,Thr^B30-NH₂ human insulin, for which the step yield was 45% and the “final HPLC purity” value is on record as 96%.

Regarding Arg^B27,Thr^B30-NH₂ human insulin, the step yield is listed as 43% and the “final HPLC purity” value is recorded as “about 96%”.

Take Lys^B27,Lys^B30-NH₂ human insulin: the step yield is given as 22% and the “final HPLC purity” value turned out to be 94%.

The values are drawn from patent EP0194864 (dated 1992).
